Results as given in the supplement of paper PMC11006884.
The list shows a part of the results, in another mix than the full data.

The chains behind the UniProt entries cited, without tags or fusion partners. Where a name states a change or a piece, a line headed by the entry shows the natural chain unless it says otherwise.
UniProt Q9NU22: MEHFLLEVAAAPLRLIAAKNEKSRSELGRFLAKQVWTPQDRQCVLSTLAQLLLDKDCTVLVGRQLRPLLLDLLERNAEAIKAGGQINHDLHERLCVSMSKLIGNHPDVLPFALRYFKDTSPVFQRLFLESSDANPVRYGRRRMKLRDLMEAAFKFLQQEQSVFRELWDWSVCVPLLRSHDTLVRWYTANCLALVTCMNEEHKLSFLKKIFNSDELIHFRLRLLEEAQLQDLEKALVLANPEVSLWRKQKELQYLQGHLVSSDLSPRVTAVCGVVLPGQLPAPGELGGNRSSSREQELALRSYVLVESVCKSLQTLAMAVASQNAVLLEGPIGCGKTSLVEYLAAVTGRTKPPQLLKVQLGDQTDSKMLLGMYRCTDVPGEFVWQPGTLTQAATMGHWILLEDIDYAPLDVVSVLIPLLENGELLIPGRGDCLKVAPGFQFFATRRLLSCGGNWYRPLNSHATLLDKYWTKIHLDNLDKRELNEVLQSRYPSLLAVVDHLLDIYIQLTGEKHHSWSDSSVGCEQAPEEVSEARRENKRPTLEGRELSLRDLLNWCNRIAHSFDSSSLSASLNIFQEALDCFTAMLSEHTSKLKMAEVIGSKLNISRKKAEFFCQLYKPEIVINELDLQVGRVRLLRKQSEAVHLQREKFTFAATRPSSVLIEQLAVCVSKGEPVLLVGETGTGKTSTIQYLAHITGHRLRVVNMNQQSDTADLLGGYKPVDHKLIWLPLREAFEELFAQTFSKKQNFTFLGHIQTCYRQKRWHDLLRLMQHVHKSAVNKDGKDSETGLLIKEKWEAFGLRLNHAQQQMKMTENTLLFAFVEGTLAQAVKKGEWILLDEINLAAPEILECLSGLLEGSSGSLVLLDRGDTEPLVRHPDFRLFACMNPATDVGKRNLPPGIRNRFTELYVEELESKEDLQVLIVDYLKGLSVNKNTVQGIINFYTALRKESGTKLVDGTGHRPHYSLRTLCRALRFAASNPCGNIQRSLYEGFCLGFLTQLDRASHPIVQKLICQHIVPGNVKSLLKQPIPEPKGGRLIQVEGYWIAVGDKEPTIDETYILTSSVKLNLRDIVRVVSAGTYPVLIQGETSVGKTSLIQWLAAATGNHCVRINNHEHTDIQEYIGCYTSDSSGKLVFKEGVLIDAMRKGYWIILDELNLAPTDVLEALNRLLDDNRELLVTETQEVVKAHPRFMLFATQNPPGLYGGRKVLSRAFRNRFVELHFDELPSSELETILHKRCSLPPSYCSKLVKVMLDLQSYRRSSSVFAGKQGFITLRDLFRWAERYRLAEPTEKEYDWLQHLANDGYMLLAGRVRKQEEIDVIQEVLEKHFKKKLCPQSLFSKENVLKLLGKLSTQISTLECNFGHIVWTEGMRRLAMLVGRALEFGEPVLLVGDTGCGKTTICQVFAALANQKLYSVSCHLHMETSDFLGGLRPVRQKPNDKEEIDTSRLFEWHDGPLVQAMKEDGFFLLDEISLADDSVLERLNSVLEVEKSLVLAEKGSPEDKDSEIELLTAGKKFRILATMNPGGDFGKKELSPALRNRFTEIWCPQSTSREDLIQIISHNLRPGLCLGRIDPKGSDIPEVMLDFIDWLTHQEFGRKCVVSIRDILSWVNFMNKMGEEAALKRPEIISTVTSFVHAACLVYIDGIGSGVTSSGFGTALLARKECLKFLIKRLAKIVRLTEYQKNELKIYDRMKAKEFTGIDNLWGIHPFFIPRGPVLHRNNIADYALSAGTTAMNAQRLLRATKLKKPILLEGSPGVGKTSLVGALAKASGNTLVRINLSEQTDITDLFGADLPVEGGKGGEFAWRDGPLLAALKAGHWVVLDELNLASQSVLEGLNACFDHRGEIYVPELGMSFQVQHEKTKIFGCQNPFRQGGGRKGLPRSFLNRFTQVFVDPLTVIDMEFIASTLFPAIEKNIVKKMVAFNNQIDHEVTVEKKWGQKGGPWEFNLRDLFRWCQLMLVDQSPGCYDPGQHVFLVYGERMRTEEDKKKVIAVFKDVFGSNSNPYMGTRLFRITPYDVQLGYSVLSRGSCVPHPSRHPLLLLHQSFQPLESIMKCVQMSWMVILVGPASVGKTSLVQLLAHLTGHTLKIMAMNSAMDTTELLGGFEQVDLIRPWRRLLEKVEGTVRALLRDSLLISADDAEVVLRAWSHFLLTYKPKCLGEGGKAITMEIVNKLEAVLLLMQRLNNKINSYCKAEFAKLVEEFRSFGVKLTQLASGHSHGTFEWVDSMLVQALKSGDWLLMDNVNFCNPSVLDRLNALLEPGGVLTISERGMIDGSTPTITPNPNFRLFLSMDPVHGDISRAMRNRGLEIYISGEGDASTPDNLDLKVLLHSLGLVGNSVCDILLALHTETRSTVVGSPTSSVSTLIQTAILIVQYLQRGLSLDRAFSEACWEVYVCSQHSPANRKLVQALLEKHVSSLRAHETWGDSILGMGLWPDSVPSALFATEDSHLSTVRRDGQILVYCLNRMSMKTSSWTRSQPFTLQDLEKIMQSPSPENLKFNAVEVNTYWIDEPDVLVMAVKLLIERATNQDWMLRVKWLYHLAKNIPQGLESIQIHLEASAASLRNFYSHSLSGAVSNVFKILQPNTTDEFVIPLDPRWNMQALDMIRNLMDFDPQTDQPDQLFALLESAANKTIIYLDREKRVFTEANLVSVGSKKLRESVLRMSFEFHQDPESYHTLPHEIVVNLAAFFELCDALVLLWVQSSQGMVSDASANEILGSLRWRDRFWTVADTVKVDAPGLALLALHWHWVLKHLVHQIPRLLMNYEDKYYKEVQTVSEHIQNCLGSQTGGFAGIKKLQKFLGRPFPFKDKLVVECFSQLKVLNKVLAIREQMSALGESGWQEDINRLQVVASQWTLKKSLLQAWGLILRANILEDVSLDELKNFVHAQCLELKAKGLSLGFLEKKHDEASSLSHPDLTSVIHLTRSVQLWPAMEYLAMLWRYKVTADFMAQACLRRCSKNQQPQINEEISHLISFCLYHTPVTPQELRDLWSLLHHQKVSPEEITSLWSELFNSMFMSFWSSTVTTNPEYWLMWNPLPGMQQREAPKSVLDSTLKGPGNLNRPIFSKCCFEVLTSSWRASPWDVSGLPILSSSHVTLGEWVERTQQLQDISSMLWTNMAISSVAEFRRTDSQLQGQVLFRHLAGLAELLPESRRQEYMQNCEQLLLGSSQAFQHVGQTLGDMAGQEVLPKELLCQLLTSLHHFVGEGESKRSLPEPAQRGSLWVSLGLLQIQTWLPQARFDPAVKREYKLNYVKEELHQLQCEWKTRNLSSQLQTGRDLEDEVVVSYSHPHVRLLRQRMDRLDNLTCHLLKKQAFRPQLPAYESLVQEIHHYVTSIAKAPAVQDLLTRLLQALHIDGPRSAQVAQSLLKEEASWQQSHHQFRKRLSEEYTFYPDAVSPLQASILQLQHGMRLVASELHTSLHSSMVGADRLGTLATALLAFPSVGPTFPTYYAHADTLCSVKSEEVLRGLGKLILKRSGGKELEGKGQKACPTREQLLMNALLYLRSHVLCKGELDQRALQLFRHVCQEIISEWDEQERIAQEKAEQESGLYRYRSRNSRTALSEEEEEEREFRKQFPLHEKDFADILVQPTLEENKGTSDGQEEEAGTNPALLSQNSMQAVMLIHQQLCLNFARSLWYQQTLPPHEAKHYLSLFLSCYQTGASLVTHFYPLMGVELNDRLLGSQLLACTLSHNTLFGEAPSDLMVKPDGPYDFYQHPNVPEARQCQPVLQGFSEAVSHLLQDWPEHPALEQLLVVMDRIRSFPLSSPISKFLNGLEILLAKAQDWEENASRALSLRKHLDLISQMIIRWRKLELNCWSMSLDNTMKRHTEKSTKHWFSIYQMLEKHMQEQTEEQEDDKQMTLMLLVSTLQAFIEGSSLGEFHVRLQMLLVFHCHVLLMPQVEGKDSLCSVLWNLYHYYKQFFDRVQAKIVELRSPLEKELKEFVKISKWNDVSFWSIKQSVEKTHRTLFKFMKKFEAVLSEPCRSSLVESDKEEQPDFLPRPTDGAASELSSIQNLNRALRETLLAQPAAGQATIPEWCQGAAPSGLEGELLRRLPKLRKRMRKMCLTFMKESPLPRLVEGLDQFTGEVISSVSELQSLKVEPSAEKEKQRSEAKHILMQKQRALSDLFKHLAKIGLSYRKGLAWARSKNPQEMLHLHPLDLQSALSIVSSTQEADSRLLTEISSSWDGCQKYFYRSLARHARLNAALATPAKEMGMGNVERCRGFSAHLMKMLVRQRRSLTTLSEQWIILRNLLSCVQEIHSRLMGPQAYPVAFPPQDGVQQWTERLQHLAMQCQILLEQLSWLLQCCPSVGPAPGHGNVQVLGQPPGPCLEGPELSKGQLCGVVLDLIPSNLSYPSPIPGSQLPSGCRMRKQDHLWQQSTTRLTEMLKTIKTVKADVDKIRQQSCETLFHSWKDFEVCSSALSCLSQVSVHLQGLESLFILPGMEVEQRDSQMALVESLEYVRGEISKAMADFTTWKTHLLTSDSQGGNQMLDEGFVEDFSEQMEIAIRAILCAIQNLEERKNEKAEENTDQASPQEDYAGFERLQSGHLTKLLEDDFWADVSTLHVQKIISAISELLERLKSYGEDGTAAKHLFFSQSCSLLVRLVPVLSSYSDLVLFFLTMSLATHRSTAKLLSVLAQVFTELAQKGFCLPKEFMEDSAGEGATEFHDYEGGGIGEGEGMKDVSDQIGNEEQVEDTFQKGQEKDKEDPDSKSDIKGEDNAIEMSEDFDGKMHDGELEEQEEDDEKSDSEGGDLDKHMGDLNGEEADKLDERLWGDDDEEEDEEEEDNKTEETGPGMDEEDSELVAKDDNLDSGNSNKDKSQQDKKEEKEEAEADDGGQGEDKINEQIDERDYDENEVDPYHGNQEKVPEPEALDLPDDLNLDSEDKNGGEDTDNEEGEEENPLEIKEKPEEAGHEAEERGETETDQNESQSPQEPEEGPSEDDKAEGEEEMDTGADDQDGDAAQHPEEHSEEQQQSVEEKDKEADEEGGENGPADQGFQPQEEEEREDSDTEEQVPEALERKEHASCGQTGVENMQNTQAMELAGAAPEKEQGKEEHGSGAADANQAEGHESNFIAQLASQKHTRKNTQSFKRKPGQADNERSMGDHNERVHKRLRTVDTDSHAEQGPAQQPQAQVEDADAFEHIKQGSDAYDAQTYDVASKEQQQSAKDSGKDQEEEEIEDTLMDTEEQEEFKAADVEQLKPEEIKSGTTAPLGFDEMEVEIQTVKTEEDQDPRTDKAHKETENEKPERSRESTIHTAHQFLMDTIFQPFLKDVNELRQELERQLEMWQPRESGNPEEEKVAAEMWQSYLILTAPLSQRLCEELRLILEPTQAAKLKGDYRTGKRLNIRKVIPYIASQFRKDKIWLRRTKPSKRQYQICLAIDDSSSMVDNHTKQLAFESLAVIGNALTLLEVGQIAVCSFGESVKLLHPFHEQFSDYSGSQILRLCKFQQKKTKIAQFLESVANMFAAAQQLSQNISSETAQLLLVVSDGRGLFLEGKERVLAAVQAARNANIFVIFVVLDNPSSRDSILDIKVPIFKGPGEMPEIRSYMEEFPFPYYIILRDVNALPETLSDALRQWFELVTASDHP
UniProt Q9H3U1: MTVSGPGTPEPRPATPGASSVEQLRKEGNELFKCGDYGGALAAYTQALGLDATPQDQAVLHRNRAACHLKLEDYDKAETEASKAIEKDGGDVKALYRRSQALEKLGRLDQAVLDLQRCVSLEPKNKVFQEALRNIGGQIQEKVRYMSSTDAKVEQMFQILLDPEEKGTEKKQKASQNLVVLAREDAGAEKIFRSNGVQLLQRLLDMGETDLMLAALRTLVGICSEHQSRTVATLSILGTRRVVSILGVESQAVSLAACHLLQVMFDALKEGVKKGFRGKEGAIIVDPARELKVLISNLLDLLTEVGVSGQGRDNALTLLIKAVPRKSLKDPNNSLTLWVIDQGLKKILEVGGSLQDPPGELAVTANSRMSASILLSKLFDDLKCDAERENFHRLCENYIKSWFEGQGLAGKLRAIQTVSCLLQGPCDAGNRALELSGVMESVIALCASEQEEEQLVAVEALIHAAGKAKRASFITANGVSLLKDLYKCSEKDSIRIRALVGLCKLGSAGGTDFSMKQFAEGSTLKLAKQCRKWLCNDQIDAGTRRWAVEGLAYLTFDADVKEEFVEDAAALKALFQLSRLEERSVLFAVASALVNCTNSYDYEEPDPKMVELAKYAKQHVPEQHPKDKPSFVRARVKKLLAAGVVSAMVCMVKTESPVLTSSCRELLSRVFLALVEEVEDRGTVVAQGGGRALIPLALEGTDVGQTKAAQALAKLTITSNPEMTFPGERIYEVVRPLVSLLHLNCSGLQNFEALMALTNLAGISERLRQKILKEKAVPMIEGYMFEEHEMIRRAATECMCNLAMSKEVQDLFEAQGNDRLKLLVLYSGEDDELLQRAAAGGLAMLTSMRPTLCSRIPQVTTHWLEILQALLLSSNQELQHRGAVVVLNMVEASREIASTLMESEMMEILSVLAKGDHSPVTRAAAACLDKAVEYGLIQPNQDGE

compound: COC(=O)C#Cc1ccccc1 [methyl 3-phenylpropiolate]; assay: log2 ratio of iodoacetamide-alkyne labeling of the cysteine site, DMSO over compound (competition); higher = stronger covalent engagement of the cysteine by the compound, active = 1 or more; conditions: 500 µM; treatment time 1 h; system: HEK293T cell lysate
Procedure, shortened: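 HEK293T lysate (2 mg/mL) was treated with DMSO or electrophile (500 µM, 1 h, ambient temperature), then iodoacetamide alkyne (1 h), clicked to sCIP-TMT reagents, pooled, trypsin-digested overnight at 37 °C, streptavidin-enriched and acid-eluted. Peptides were run on Orbitrap Eclipse LC-MS/MS with FAIMS and quantified in FragPipe. The log2 competition ratio per cysteine is mean control-channel over mean compound-channel reporter intensity. Duplicate channels and three replicates were used, and cysteines quantified in only one replicate were excluded.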

| Target | log2 ratio of iodoacetamide-alkyne labeling |
| --- | --- |
| BAZ1A C586 (UniProt Q9NRL2) | inactive: 0.287 |
| EML4 C82 (UniProt Q9HC35) | inactive: 0.381 |
| DSN1 C355 (UniProt Q9H410) | inactive: 0.287 |
| ANLN C210 (UniProt Q9NQW6) | inactive: 0.514 |
| INCENP C163 (UniProt Q9NQS7) | inactive: 0.179 |
| OSBPL3 C520 (UniProt Q9H4L5) | inactive: 0.0937 |
| MDN1 C43 (UniProt Q9NU22) | active: 1.32 |
| LANCL2 C49 (UniProt Q9NS86) | inactive: -0.064 |
| CD320 C67 (UniProt Q9NPF0) | inactive: 0.843 |
| MYO10 C1517 (UniProt Q9HD67) | inactive: 0.288 |
| NOL11 C368 (UniProt Q9H8H0) | inactive: 0.498 |
| BCAS3 C16 (UniProt Q9H6U6) | inactive: 0.55 |
| OSBPL3 C203 (UniProt Q9H4L5) | inactive: 0.76 |
| SARS2 C66 (UniProt Q9NP81) | inactive: 0.211 |
| MED4 C162 (UniProt Q9NPJ6) | inactive: 0.318 |
| STRN4 C337 (UniProt Q9NRL3) | inactive: 0.488 |
| MDN1 C3528 (UniProt Q9NU22) | inactive: 0.153 |
| RDH14 C97 (UniProt Q9HBH5) | inactive: 0.228 |
| OSGEPL1 C356 (UniProt Q9H4B0) | inactive: 0.273 |

| Target | log2 ratio of iodoacetamide-alkyne labeling |
| --- | --- |
| UNC45A C426 (UniProt Q9H3U1) | inactive: 0.396 |
| CD320 C139 (UniProt Q9NPF0) | inactive: 0.504 |
| PHAX C87 (UniProt Q9H814) | inactive: 0.778 |
| GPHN C293 (UniProt Q9NQX3) | active: 1.12 |
| NEK6 C40 (UniProt Q9HC98) | inactive: 0.426 |
| EXOSC4 C97 (UniProt Q9NPD3) | inactive: 0.533 |
| C11orf68 C222 (UniProt Q9H3H3) | inactive: 0.528 |
| C17orf75 C296 (UniProt Q9HAS0) | inactive: 0.689 |
| MDN1 C172 (UniProt Q9NU22) | inactive: 0.0689 |
| FAM83D C15 (UniProt Q9H4H8) | active: 1.11 |
| DDX21 C378 (UniProt Q9NR30) | inactive: 0.166 |
| XPO5 C1052 (UniProt Q9HAV4) | inactive: 0.0567 |
| UniProt Q9HAU4_C293 | inactive: 0.257 |
| EXOSC3 C184 (UniProt Q9NQT5) | inactive: 0.41 |
| EIF2B3 C64 (UniProt Q9NR50) | inactive: 0.548 |
| FARSB C151 (UniProt Q9NSD9) | inactive: 0.117 |
| XAB2 C117 (UniProt Q9HCS7) | inactive: 0.234 |
| LRRC40 C23 (UniProt Q9H9A6) | inactive: 0.78 |

As entered above:
In log2 ratio of iodoacetamide-alkyne labeling, C17orf75 C296 (UniProt Q9HAS0) has the entry inactive: 0.689
In log2 ratio of iodoacetamide-alkyne labeling, STRN4 C337 (UniProt Q9NRL3) has the entry inactive: 0.488
In log2 ratio of iodoacetamide-alkyne labeling, FAM83D C15 (UniProt Q9H4H8) has the entry active: 1.11
